PubChem BioAssay AID1259405 – NCATS | 2018

Screen: 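Silenced genes that increase secreted GFP made by CHO cells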 (primary screen)
System: Chinese hamster CHO-K1 ovary cells with stable secreted eGFP expression
Reagents: single siRNA against mouse genes, 0.8 pmol siRNA per well (2 µl of 400 nM stock)
Time to read-out: 3 days
Measurement: 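Per-well intracellular GFP measured by laser scanning cytometry, plus viability from ATP luminescence, each relative to plate median of non-targeting control wells, in %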
Direction: GFP, % of control: higher = more GFP per well, higher productivity; viability (ATP), % of control: higher = more viable cells (more ATP)
Hit rule: 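Called active when intracellular GFP, relative to negative control, is at or above 120%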
The deposit covers about 50,000 reagents; shown is a part drawn at random. About 4,000 of them (8%) count as active. 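Mouse siRNA library applied to hamster cells; one well for each siRNA.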 The numbers tell different reagents against one gene apart.

Klra17 #1 showed GFP, % of control 58.7; viability (ATP), % of control 81; inactive. Klra17 #2 scored GFP, % of control 84.3; viability (ATP), % of control 70.5; inactive. After knock-down of Klra17 #3, the record shows GFP, % of control 127; viability (ATP), % of control 79.7; active. Ndufb8 #1 scored GFP, % of control 60.7; viability (ATP), % of control 78.4; inactive. With knock-down of Ndufb8 #2, the record shows GFP, % of control 65.7; viability (ATP), % of control 71.5; inactive. Depletion of Ndufb8 #3 gave: GFP, % of control 51; viability (ATP), % of control 44.7; inactive.

For Wnt10b #1 the deposit lists GFP, % of control 108; viability (ATP), % of control 115; inactive. Knock-down of Wnt10b #2 came out at: GFP, % of control 75.1; viability (ATP), % of control 34.2; inactive. Wnt10b #3 showed GFP, % of control 52.6; viability (ATP), % of control 56.4; inactive. Against Serpinb3b #1, the values are GFP, % of control 96.4; viability (ATP), % of control 66.1; inactive. Knock-down of Serpinb3b #2 gave: GFP, % of control 102; viability (ATP), % of control 77.7; inactive. After knock-down of Serpinb3b #3, the screen gave GFP, % of control 159; viability (ATP), % of control 101; active.

With knock-down of Mfsd11 #1, the record shows GFP, % of control 86.9; viability (ATP), % of control 81; inactive. Mfsd11 #2 showed GFP, % of control 58.2; viability (ATP), % of control 74; inactive. Mfsd11 #3 showed GFP, % of control 65; viability (ATP), % of control 64; inactive. Depletion of Pnpla6 #1 resulted in: GFP, % of control 85.1; viability (ATP), % of control 70.6; inactive. Pnpla6 #2 showed GFP, % of control 182; viability (ATP), % of control 160; active. Silencing of Pnpla6 #3 resulted in: GFP, % of control 50.3; viability (ATP), % of control 56.7; inactive.

Silencing of Phyh #1 resulted in: GFP, % of control 71.9; viability (ATP), % of control 36.4; inactive. Against Phyh #2, the entry reads GFP, % of control 48.2; viability (ATP), % of control 52.9; inactive. Knock-down of Phyh #3 gave: GFP, % of control 56.4; viability (ATP), % of control 78; inactive.

Not a retest: an excerpt of the list.
Pnpla6 #2 — GFP, % of control: 182; viability (ATP), % of control: 160; Outcome: active
Pnpla6 #3 — GFP, % of control: 50.3; viability (ATP), % of control: 56.7; Outcome: inactive
Phyh #1 — GFP, % of control: 71.9; viability (ATP), % of control: 36.4; Outcome: inactive
Phyh #2 — GFP, % of control: 48.2; viability (ATP), % of control: 52.9; Outcome: inactive
Phyh #3 — GFP, % of control: 56.4; viability (ATP), % of control: 78; Outcome: inactive

Further entries follow.
Depletion of Nsun3 #1 resulted in: GFP, % of control 66.1; viability (ATP), % of control 48.2; inactive. After knock-down of Nsun3 #2 the results were GFP, % of control 94.1; viability (ATP), % of control 80.3; inactive. Nsun3 #3 showed GFP, % of control 69.9; viability (ATP), % of control 74.3; inactive. Against Pon2 #1, the entry reads GFP, % of control 62.7; viability (ATP), % of control 72.6; inactive. Pon2 #2 showed GFP, % of control 98.6; viability (ATP), % of control 97.1; inactive. Against Pon2 #3 the deposit lists GFP, % of control 54.7; viability (ATP), % of control 61.3; inactive.

For Fut2b #1, the values are GFP, % of control 60.9; viability (ATP), % of control 42.9; inactive. For Fut2b #2, the values are GFP, % of control 65.4; viability (ATP), % of control 55.4; inactive. For Fut2b #3 the deposit lists GFP, % of control 101; viability (ATP), % of control 56; inactive. Against Kir3dl2 #1, the values are GFP, % of control 159; viability (ATP), % of control 72.8; active. Kir3dl2 #2 showed GFP, % of control 101; viability (ATP), % of control 73.7; inactive. Kir3dl2 #3 gave GFP, % of control 122; viability (ATP), % of control 87.1; active.

After knock-down of Trpm4 #1 the results were GFP, % of control 113; viability (ATP), % of control 103; inactive. Silencing of Trpm4 #2 came out at: GFP, % of control 90.4; viability (ATP), % of control 81; inactive. After knock-down of Trpm4 #3, the screen gave GFP, % of control 98; viability (ATP), % of control 113; inactive. Silencing of Tmem191 #1 gave: GFP, % of control 67.7; viability (ATP), % of control 54.5; inactive. For Tmem191 #2 the deposit lists GFP, % of control 68.3; viability (ATP), % of control 66.9; inactive. With knock-down of Tmem191 #3, the screen gave GFP, % of control 55.8; viability (ATP), % of control 64.4; inactive.

After knock-down of Rexo4 #1, the screen gave GFP, % of control 78.1; viability (ATP), % of control 41; inactive. Silencing of Rexo4 #2 gave: GFP, % of control 114; viability (ATP), % of control 97.3; inactive. Silencing of Rexo4 #3 gave: GFP, % of control 71.5; viability (ATP), % of control 78.6; inactive.
